Values quoted from earlier work, collected in paper PMC11387447 (Pharmacological Reports, 2024).

Conditions: IIIATO group: single oral ATO 20 mg/kg b.w. alone, n = 8, adopted from previous study ref 12, cited from earlier work
[1] = rat plasma, median (quartiles) or mean ± SD (CV %)

In the case of CC(C)c1c(C(=O)Nc2ccccc2)c(-c2ccccc2)c(-c2ccc(F)cc2)n1CC[C@@H](O)C[C@@H](O)CC(=O)O [ATO, atorvastatin, reference compound], the tmax (median (quartiles)) is given as 1.00 (1.00; 2.00) h, the “AUC0–∞” value [1] is given as 169.45 (162.03; 194.68) ng × h/mL and the Cmax [1] is given as 75.12 (47.94; 85.00) ng/mL.
